Measured values: the supplement of paper PMC10331698
± gives the standard deviation of the averaged measurements. Most entries show no effect beyond the scatter of the controls.

Experiments:
Test in all cases: level (log10 ratio to DMSO vehicle control); higher = higher biomarker level / cell amount than vehicle control
[1] = compound: OCC(F)(F)C(F)(F)C(F)(F)C(F)(F)C(F)(F)C(F)F [1H,1H,7H-Dodecafluoro-1-heptanol]; conditions: 2200 nM; in DMSO
Protocol: (§1)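 BioMAP Diversity Plus panel of 12 human primary cell co-culture systems (3C, 4H, LPS, SAg, BT, BF4T, BE3C, CASM3C, HDF3CGF, KF3CT, MyoF, Mphg). Compounds were added 1 h before stimulation and left for 24 h (MyoF 48 h; BT 72 h for soluble read-outs or 6 d for IgG). Biomarkers were read by ELISA, cytotoxicity by SRB, PBMC viability and proliferation by Alamar Blue. Each well value was divided by the mean of 8 DMSO control wells on the same plate and log10 transformed; duplicate blinded samples were tested at 4 concentrations.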

[2] = compound: NC(=O)C(F)(F)C(F)(F)C(F)(F)C(F)F; conditions: in DMSO
Protocol: as §1

[3] = compound: O=P(O)(O)CCC(F)(F)C(F)(F)C(F)(F)C(F)(F)C(F)(F)C(F)(F)F [2-(Perfluorohexyl)ethylphosphonic acid]; conditions: 2200 nM; in DMSO
Protocol: as §1

Pentafluoropropionamide = compound: NC(=O)C(F)(F)C(F)(F)F [Pentafluoropropionamide]; conditions: 2200 nM; in DMSO
Protocol: as §1

[4] = compound: O=S(=O)(O)C(F)(F)C(F)(F)C(F)(F)C(F)(F)C(F)(F)C(F)(F)C(F)(F)C(F)(F)F [Potassium perfluorooctanesulfonate]; conditions: 2200 nM; in DMSO
Protocol: as §1

[5] = compound: O=S(=O)(O)C(F)(F)C(F)(F)C(F)(F)C(F)(F)C(F)(F)C(F)(F)C(F)(F)C(F)(F)F [Perfluorooctanesulfonic acid]; conditions: 2200 nM; in DMSO
Protocol: as §1

[6] = compound: CO[Si](C)(CCC(F)(F)C(F)(F)C(F)(F)C(F)(F)C(F)(F)C(F)(F)F)OC [Dimethoxymethyl((perfluorohexyl)ethyl)silane]; conditions: in DMSO
Protocol: as §1

[7] = compound: C=CC(=O)OCC(F)(F)C(F)(F)C(F)(F)C(F)(F)C(F)(F)C(F)(F)C(F)(F)F [1H,1H-Perfluorooctyl acrylate]; conditions: 2200 nM; in DMSO
Protocol: as §1

[8] = compound: COC(=O)C(F)(F)C(F)(F)OC(F)(C(F)(F)F)C(F)(F)OC(F)=C(F)F [Methyl perfluoro(3-(1-ethenyloxypropan-2-yloxy)propanoate)]; conditions: in DMSO
Protocol: as §1

Heptafluorobutyl iodide = compound: FC(F)(F)C(F)(F)C(F)(F)CI [Heptafluorobutyl iodide]; conditions: 2200 nM; in DMSO
Protocol: as §1

[9] = compound: C=C(C)C(=O)OCC(F)(F)C(F)(F)C(F)(F)C(F)(F)C(F)(F)C(F)(F)C(F)(F)F; conditions: in DMSO
Protocol: as §1

[10] = compound: O=C(O)C(F)(F)C(F)(F)C(F)F [4H-Perfluorobutanoic acid]; conditions: in DMSO
Protocol: as §1

[11] = compound: FC(F)(F)C(F)(F)C(F)(F)CC1CO1 [1H,1H-Heptafluorobutyl epoxide]; conditions: 2200 nM; in DMSO
Protocol: as §1

[12] = compound: NS(=O)(=O)C(F)(F)C(F)(F)C(F)(F)C(F)(F)C(F)(F)C(F)(F)C(F)(F)C(F)(F)F [Perfluorooctanesulfonamide]; conditions: in DMSO
Protocol: as §1

[13] = compound: OCCCCC(F)(F)C(F)(F)C(F)(F)C(F)(F)F [4:4 Fluorotelomer alcohol]; conditions: 2200 nM; in DMSO
Protocol: as §1

[14] = compound: O=S(=O)(F)C(F)(F)C(F)(F)C(F)(F)C(F)(F)C(F)(F)C(F)(F)C(F)(F)C(F)(F)F [Perfluorooctanesulfonyl fluoride]; conditions: 2200 nM; in DMSO
Protocol: as §1

[15] = compound: C=CC(F)(F)C(F)(F)C(F)(F)C(F)(F)C(F)(F)C(F)(F)C(F)(F)C(F)(F)C=C [1,8-Divinylperfluorooctane]; conditions: in DMSO
Protocol: as §1

[16] = compound: O=S(=O)(OCC(F)(F)F)C(F)(F)C(F)(F)C(F)(F)C(F)(F)F [2,2,2-Trifluoroethyl perfluorobutanesulfonate]; conditions: 2200 nM; in DMSO
Protocol: as §1

Test System	level (log10) [1]	level (log10) ([2]; 2200 nM)	level (log10) ([2]; 6700 nM)	level (log10) ([2]; 20000 nM)	level (log10) ([2]; 60000 nM)	level (log10) [3]	level (log10) (Pentafluoropropionamide)	level (log10) [4]	level (log10) [5]	level (log10) ([6]; 740 nM)	level (log10) ([6]; 2200 nM)	level (log10) [7]	level (log10) ([8]; 740 nM)	level (log10) ([8]; 2200 nM)	level (log10) (Heptafluorobutyl iodide)	level (log10) ([9]; 740 nM)	level (log10) ([9]; 2200 nM)	level (log10) ([10]; 2200 nM)	level (log10) ([10]; 6700 nM)	level (log10) ([10]; 20000 nM)	level (log10) ([10]; 60000 nM)	level (log10) [11]	level (log10) ([12]; 2200 nM)	level (log10) ([12]; 6700 nM)	level (log10) ([12]; 20000 nM)	level (log10) [13]	level (log10) [14]	level (log10) ([15]; 740 nM)	level (log10) ([15]; 2200 nM)	level (log10) [16]
CASM3C:CXCL8/IL-8	0.003 ± 0.013	-0.0035 ± 0.0078	-0.006	-0.006	0.004 ± 0.031	-0.009 ± 0.017	0.0165 ± 0.0021	0.0245 ± 0.021	0.023 ± 0.059	0.004 ± 0.0085	0.0005 ± 0.0078	-0.0005 ± 0.022	0.008 ± 0.034	-0.0025 ± 0.0021	0.007 ± 0.0028	0.018 ± 0.023	-0.0065 ± 0.021	0.015 ± 0.04	-0.003 ± 0.0057	0.004 ± 0.0042	0.0135 ± 0.033	0.0035 ± 0.021	0.006 ± 0.0042	-0.0055 ± 0.0035	-0.0125 ± 0.0035	0.041 ± 0.05	0.0105 ± 0.005	0.001 ± 0.018	-0.015 ± 0.013	0.0465 ± 0.012
KF3CT:CXCL10/IP-10	-0.0035 ± 0.00071	0.003 ± 0.016	-0.001 ± 0.0014	-0.001 ± 0.013	0.0025 ± 0.0064	-0.003 ± 0.014	-0.007 ± 0.011	0 ± 0.028	0.0075 ± 0.04	0	-0.007 ± 0.011	-0.004 ± 0.0057	-0.0015 ± 0.005	-0.0075 ± 0.00071	-0.001 ± 0.016	0.01 ± 0.014	0.0015 ± 0.005	0.008 ± 0.0071	-0.007 ± 0.016	-0.0035 ± 0.016	0.01 ± 0.0042	-0.0175 ± 0.022	0.0015 ± 0.00071	-0.021 ± 0.0028	-0.205 ± 0.0092	0.022 ± 0.025	0.0055 ± 0.0078	-0.011 ± 0.013	-0.0085 ± 0.0021	0.0365 ± 0.022
MyoF:Decorin	-0.017 ± 0.016	-0.0265 ± 0.012	0.012 ± 0.0085	-0.0035 ± 0.03	-0.009 ± 0.0085	-0.002 ± 0.02	0.02 ± 0.035	0.035 ± 0.055	0.0255 ± 0.042	0.008 ± 0.018	0.003 ± 0.0042	0.0015 ± 0.018	0.035 ± 0.0014	0.0325 ± 0.037	-0.005 ± 0.0085	0.01 ± 0.013	0.0025 ± 0.016	-0.0095 ± 0.071	-0.005 ± 0.048	0.003 ± 0.064	0.0655 ± 0.088	-0.007 ± 0.0099	0.0125 ± 0.0092	0.0265 ± 0.053	0.031 ± 0.037	0.015 ± 0.028	-0.0115 ± 0.018	0.0055 ± 0.046	-0.0055 ± 0.015	0.049 ± 0.059
CASM3C:CD142/Tissue Factor	0.0015 ± 0.029	-0.0165 ± 0.012	-0.01 ± 0.017	-0.001 ± 0.011	-0.0075 ± 0.00071	-0.0225 ± 0.049	-0.015 ± 0.016	0.0025 ± 0.11	-0.0025 ± 0.026	-0.0125 ± 0.029	-0.0065 ± 0.012	-0.0025 ± 0.035	0.0005 ± 0.039	0.0075 ± 0.037	0.0065 ± 0.043	-0.0175 ± 0.005	-0.034 ± 0.051	-0.0175 ± 0.054	0.0045 ± 0.14	-0.039 ± 0.093	-0.0415 ± 0.037	-0.026 ± 0.057	-0.0205 ± 0.033	0.021 ± 0.011	0.082 ± 0.04	-0.001 ± 0.059	-0.004 ± 0.0099	-0.011 ± 0.014	0.0055 ± 0.00071	0.004 ± 0.038
